Test results reported in PubChem BioAssay AID1471 (National Center for Advancing Translational Sciences (NCATS), 2008).
Where “and” joins values, the source holds several entries; their conditions need not be identical. Equal entries are not always repeated. Hit rate of the full screen: of about 230,000 compounds, about 310 (0.13%) were called active. Inconclusive means that the source gave no clear call. Such entries were picked first, then a sample of the others. Calls follow the shape of the dose curve; as a rule, active = well fitted activation curve with a large enough effect; inconclusive = small, poorly fitted or top-dose-only effect; inactive = no such curve, though single readings can be large or run the other way. Potencies beside an inconclusive call are fits to weak or partial responses and may not hold up.

Experiment: qHTS Multiplex Assay to Identify Dual Action Probes in a Cell Model of Huntington: Cytoprotection (ATP); also: nearly all actives have a fitted effect of over 45% in size;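 as to cytoprotection (ATP increase): toxic huntingtin expression switched on by the ecdysone agonist tebufenozide; % of control where 0% means no effect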
Conditions: PC12 HTT-Q103 induced, ATP luminescence, 40 h; cytoprotection (ATP increase): at 56.4 µM (top of the series) unless noted
Method in brief: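 Stable PC12 Q103-GFP cells in serum-supplemented, phenol red-free DMEM; induction by tebufenozide at 100 nM final; compound dose series; cell viability quantified luminescently from ATP.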
Potency is read from the fitted curve at half-maximal effect.

Compound | Potency | cytoprotection (ATP increase)
CC(C)NC(=O)N1CCCC2(CCN(S(=O)(=O)c3ccccc3)CC2)C1 | inconclusive: 1 µM [activator, full curve, poor fit] | 
FC(F)c1nnc2c(Cl)cc(C(F)(F)F)cn12 | inconclusive: 3.55 µM [activator, single point] | 
Cc1ccc2nc(C)c(C(=O)N/N=C/c3cccs3)n2c1 |  | inactive: -1.44% [at 10 µM]
Cc1csc2nc(CNC(=O)c3cccc(C(F)(F)F)c3)cn12 |  | inactive: -14.2%
C=CCn1c(SCc2ccc(C(=O)Nc3ccccc3)cc2)nnc1-c1ccccc1 | inconclusive: 4.47 µM [activator, full curve, poor fit] | 
CN(C)C/C=C(/c1ccc(Br)cc1)c1cccnc1 | inconclusive: 2.24 µM [activator, single point] | 
COCc1c(Br)c(C)nc(OCC(=O)N/N=C/c2ccco2)c1C#N | inconclusive: 0.447 µM [activator, partial curve] | 
COc1ccc(-c2cc(=O)oc3c(C)c(OCc4nn[nH]n4)ccc23)cc1 |  | inactive: 1.97%
COc1ccc(S(=O)(=O)N/N=c2\oc3c(OC)cccc3cc2S(=O)(=O)c2ccc(C)cc2)cc1OC | inconclusive: 20 µM [activator, single point] | 
O=S(=O)(c1cccs1)N1CCN(C/C=C/c2ccccc2)CC1 |  | inactive: 4.48% [at 10 µM]
CCN(CC)CCNC(=O)c1cc(Cl)c(N)cc1OC | inconclusive: 0.447 µM [activator, full curve] | 
COc1ccccc1NC(=S)N1CCN(C(=O)C2CCCO2)CC1 (stereo unspecified) | inconclusive: 0.398 µM [activator, single point] | 
N#Cc1cccc(NC(=O)N2CCC3(CC2)CCN(C(=O)c2ccco2)CC3)c1 | inconclusive: 0.1 µM [activator, partial curve] | 
Cn1c(NNC(=O)/C=C/c2ccc3c(c2)OCO3)cc(=O)n(C)c1=O |  | inactive: -2.02% [at 10 µM]
CCn1c(=O)c2ccccc2n2c(SCC(=O)N3CCCc4ccccc43)nnc12 |  | inactive: -29.5%
C=CCOC(=O)[C@H](O)[C@@H](O)C(=O)OCC=C | inconclusive: 4.47 µM [activator, partial curve, poor fit] | 
CC(=O)CC1OC(=O)C(Br)=C1NCc1ccccc1 (stereo unspecified) |  | inactive: -142%
CC(C)C(=O)Nc1cc(S(=O)(=O)Nc2cccc(Cl)c2)ccc1Cl |  | inactive: 8.56% [at 10 µM]
CNC(=O)Oc1ccc2c(c1)[C@@]1(C)CCN(C)[C@@H]1N2C | inconclusive: 39.8 µM [activator, single point] | 
CCOCCCNC(=S)N1CCCN(c2nc3cc(C)ccc3cc2C#N)CC1 | inconclusive: 35.5 µM [activator, single point] | 
Nc1ccccc1S(N)(=O)=O | inconclusive: 0.0501 µM [activator, full curve, poor fit] | 
Cc1ccc(Nc2nc(N3CCOCC3)nc(N3CCOCC3)n2)cc1 | inconclusive: 2.51 µM [activator, single point] | 

Compound | Potency | cytoprotection (ATP increase)
O=C(Cn1c(O)c(N=NC(=O)c2ccncc2)c2ccccc21)Nc1ccccc1 |  | inactive: 9.61% [at 10 µM]
COc1ccccc1NC(=O)C1=C(C)NC(=O)NC1c1ccc(C)s1 (stereo unspecified) | inconclusive: 3.98 µM [activator, partial curve] | 
COc1cc(C(=S)N2CCOCC2)cc(OC)c1OC | inconclusive: 20 µM [activator, partial curve, poor fit] | 
CN(Cc1cn(C)nc1-c1ccccc1F)Cc1nccn1C | inconclusive: 1.26 µM [activator, single point] | 
N[C@@H](CO)C(=O)O | inconclusive: 0.282 µM [activator, full curve] | 
CC(C)[N+](C)(CCOC(=O)C1c2ccccc2Oc2ccccc21)C(C)C | inconclusive: 14.1 µM [activator, single point] | 
CC(Sc1nc(-c2ccco2)nc2c1c(=O)n(C)c(=O)n2C)C(=O)O (stereo unspecified) |  | inactive: 11.3% [at 10 µM]
NC(=S)NNc1cc(Cl)cc(Cl)c1 | inconclusive: 2 µM [activator, partial curve] | 
O=C(Nc1cccc(F)c1)N1CCCC2(CCN(C(=O)c3csnn3)CC2)C1 |  | inactive: -1.58%
O=C(Oc1ccccc1)N1CCC2(CC1)CCN(c1cccc(-c3ccccc3)c1)CC2 | inconclusive: 2.24 µM [activator, single point] | 
CN(CCO)c1nc(N)c2c(N)nc3c(c2c1C#N)CC(=O)N3Cc1cccs1 | inconclusive: 1.41 µM [activator, full curve, poor fit] | 
Cn1nc(C(F)(F)F)c(C(=O)Nc2ccc(F)cc2F)c1Sc1cccc(Cl)c1 | inconclusive: 0.282 µM [activator, partial curve, poor fit] | 
C=CCn1c(SC2CCOC2=O)nc2scc(C3CC3)c2c1=O (stereo unspecified) |  | inactive: 7.54%
COc1ccc(CN(Cc2ccc(C(=O)O)cc2)C(=S)Nc2ccccc2Cl)cc1OC | inconclusive: 1.26 µM [activator, single point] | 
O=C(Nc1c(F)cc(F)cc1Br)c1cc(S(=O)(=O)N2CCN(c3ccccn3)CC2)ccc1F | inconclusive: 1.41 µM [activator, partial curve] | 
O=C(NCc1cccs1)C1CC1 | inconclusive: 35.5 µM [activator, single point] | 
Nc1ccc(S(=O)(=O)Nc2ccccc2)cc1 | inconclusive: 0.126 µM [activator, full curve] | 
Cc1ccc(NC(=S)N(CCN2CCCCC2)Cc2ccco2)cc1Cl | inconclusive: 3.16 µM [activator, single point] | 
C[C@@H](C(=O)O)c1cccc(C(=O)c2ccccc2)c1 | inconclusive: 3.16 µM [activator, partial curve] | 
CC1CN(C(=O)COC(=O)c2cc(Cl)ccc2Cl)CC(C)O1 (stereo unspecified) | inconclusive: 3.55 µM [activator, single point] | 
Cc1ccc(NC(=O)c2ccc(CNS(=O)(=O)c3cccc(C(F)(F)F)c3)cc2)cc1 | inconclusive: 5.62 µM [activator, single point] | 
CCOc1cc(/C=C\c2[nH]c(=O)[nH]c(=O)c2[N+](=O)[O-])ccc1OC(C)CC (stereo unspecified) | active: 2.51 µM | 

Whole records from above.
CC(Sc1nc(-c2ccco2)nc2c1c(=O)n(C)c(=O)n2C)C(=O)O (stereo unspecified) reads cytoprotection (ATP increase): inactive: 11.3% [at 10 µM]
N#Cc1cccc(NC(=O)N2CCC3(CC2)CCN(C(=O)c2ccco2)CC3)c1 reads Potency: inconclusive: 0.1 µM [activator, partial curve]
Cn1nc(C(F)(F)F)c(C(=O)Nc2ccc(F)cc2F)c1Sc1cccc(Cl)c1 reads Potency: inconclusive: 0.282 µM [activator, partial curve, poor fit]

Next entries follow:

Compound | Potency | cytoprotection (ATP increase)
Cc1ccc(-c2cc([C@H]3[C@@H]4C=CCC[C@@]4(C)C(=O)N3Cc3ccccc3)ccc2F)cc1 | inconclusive: 1.12 µM [activator, single point] | 
Cc1ccccc1NCCNc1ccccc1C | inconclusive: 15.8 µM [activator, partial curve] | 
CCCCCCCC/C=C\C/C=C\C/C=C\CCCC(=O)O | inconclusive: 35.5 µM [activator, single point] | 
COc1ccccc1-c1n[nH]c(=S)n1Cc1ccco1 | inconclusive: 0.562 µM [activator, full curve, poor fit] | 
Cc1cc([N+](=O)[O-])ccc1NCc1ccccc1[N+](=O)[O-] |  | inactive: -10.8% [at 10 µM]
CCOC(=O)c1cnc2ccc(Cl)cc2c1Nc1ccc(S(=O)(=O)Nc2ncccn2)cc1 | inconclusive: 0.631 µM [activator, single point] | 
Cc1cc([N+](=O)[O-])c2[nH]c(C(=O)N/N=C/c3ccccc3C(=O)O)c(-c3ccccc3)c2c1 | inconclusive: 1 µM [activator, single point] | 
Cc1ccc(F)c(NC(=O)CCc2ccccc2)c1 | inconclusive: 0.891 µM [activator, single point] | 
NS(=O)(=O)c1cc2c(cc1Cl)NC(C(Cl)Cl)NS2(=O)=O (stereo unspecified) | inconclusive: 3.16 µM [activator, single point] | 
CCCCn1c(=NC(=O)c2ccco2)c(C(=O)OCC)cc2c(=O)n3cccc(C)c3nc21 |  | inactive: 2.44% [at 10 µM]
O=C(Nc1cccc(Cl)c1)OCc1cnc(Cl)s1 |  | inactive: -1.53%
Cc1cc(C)c(NC(=O)C(C)Sc2nnc(-c3ccco3)n2-c2ccccc2)c(C)c1 (stereo unspecified) | inconclusive: 0.562 µM [activator, full curve, poor fit] | 
CC1(C)CC(=O)c2c(nn(-c3ccccc3)c2-c2ccncc2)C1 | inconclusive: 4.47 µM [activator, partial curve] | 
NCCc1cnc[nH]1 | inconclusive: 31.6 µM [activator, single point] | 
Cc1nnc(NC(=O)CSc2nc(CC(C)C)nc3c2c(=O)n(C)c(=O)n3C)s1 | inconclusive: 12.6 µM [activator, single point] | 
NCCCC(=O)O | inconclusive: 39.8 µM [activator, single point] and inconclusive: 5.62 µM [activator, single point] | 
CCN(CC)C(=O)Cc1c(OC)ccc2cc(Br)ccc12 | inconclusive: 0.0079 µM [activator, partial curve, poor fit] | 
COc1cc(CNCCc2ccc(S(N)(=O)=O)cc2)ccc1OCC(=O)NC(C)(C)C | inconclusive: 0.708 µM [activator, partial curve] | 
O=C(Nc1ccc(S(=O)(=O)Nc2ncccn2)cc1)c1ccccc1NS(=O)(=O)c1ccc(F)cc1 |  | inactive: -59.8%
COc1ccc(OC)c(N/C(C)=C/C(=O)c2ccc(Br)cc2)c1 | inconclusive: 0.562 µM [activator, full curve] | 
Cc1ccc(CNC(=O)C2CCCN(S(=O)(=O)c3c(C)noc3/C=C/N(C)C)C2)cc1 (stereo unspecified) |  | inactive: -17.7% [at 10 µM]
COc1ccc(N(CC(=O)NCCC2=CCCCC2)S(=O)(=O)c2c(C)[nH]c(=O)[nH]c2=O)cc1 |  | inactive: -6.82% [at 10 µM]
